No constants are given. Whether binding was seen depends on the method and setting. Binding seen in cells or lysates may run through a third protein. A yes stands for co-enrichment or nearness to the bait. Other partners may have been found. For some of these results: A no says only that the protein was not detected with the bait.

Chains of the proteins cited; added tags and fusions are not shown.
UniProt P16788: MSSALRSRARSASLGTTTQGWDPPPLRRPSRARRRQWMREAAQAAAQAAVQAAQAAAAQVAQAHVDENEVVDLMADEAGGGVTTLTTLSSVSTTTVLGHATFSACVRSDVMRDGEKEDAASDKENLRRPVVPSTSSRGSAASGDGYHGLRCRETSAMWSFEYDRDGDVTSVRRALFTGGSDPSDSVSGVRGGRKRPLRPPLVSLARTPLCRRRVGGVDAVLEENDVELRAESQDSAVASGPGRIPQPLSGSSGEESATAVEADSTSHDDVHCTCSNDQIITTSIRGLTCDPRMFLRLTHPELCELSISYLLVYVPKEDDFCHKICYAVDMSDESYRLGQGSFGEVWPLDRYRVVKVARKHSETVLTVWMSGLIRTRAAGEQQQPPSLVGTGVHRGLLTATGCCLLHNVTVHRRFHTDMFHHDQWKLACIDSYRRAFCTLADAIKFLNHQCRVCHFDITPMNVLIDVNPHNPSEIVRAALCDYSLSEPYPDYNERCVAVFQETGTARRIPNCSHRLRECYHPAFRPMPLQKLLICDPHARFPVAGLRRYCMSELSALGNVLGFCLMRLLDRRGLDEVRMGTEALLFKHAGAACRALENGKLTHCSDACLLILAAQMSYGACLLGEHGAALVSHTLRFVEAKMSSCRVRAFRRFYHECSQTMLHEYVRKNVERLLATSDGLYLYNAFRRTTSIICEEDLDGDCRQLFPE

The target in assay [1] is HHV6-U69 (human herpesvirus 6 (HHV6)). In words: affinity purification with mass spectrometry.
Assay [2] concerns the target HHV8-ORF36 (human herpesvirus 8 (HHV8)). In words: affinity purification with mass spectrometry.
The target of assay [3] is HHV3-ORF47 (human herpesvirus 3 (HHV3)). Briefly: affinity purification with mass spectrometry.
Assay [4] concerns the target HHV7-U69 (human herpesvirus 7 (HHV7)). Briefly: affinity purification with mass spectrometry.
The target in assay [5] is T1, HHV1-UL13 (human herpesvirus 1 (HHV1)) (UniProt P04290).
T1 sequence: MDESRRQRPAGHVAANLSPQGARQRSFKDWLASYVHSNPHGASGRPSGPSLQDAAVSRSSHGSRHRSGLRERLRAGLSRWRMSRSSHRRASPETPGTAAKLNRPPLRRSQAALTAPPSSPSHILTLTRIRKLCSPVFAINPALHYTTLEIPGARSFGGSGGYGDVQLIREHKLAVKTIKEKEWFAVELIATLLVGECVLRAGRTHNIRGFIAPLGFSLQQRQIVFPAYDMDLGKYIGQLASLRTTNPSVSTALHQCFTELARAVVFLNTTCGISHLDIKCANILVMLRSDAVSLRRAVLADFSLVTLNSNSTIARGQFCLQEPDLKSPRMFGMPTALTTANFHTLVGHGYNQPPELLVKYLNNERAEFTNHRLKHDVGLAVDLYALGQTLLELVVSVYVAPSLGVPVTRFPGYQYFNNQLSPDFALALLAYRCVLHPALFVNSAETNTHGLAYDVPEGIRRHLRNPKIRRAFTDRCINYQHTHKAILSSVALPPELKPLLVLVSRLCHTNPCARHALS
Briefly: affinity purification with mass spectrometry.

Assay [6] addresses HHV5-UL97 (human cytomegalovirus (human herpesvirus 5, HHV5)) (UniProt P16788). Briefly: affinity purification with mass spectrometry.
The target is the same in assay [7]. Briefly: affinity purification with mass spectrometry; additional SILAC AP–MS experiment directly comparing proteins enriched to BGLF4 and pUL97.

B1: CBX4 (protein, UniProt O00257 1-560)
chain: MELPAVGEHVFAVESIEKKRIRKGRVEYLVKWRGWSPKYNTWEPEENILDPRLLIAFQNRERQEQLMGYRKRGPKPKPLVVQVPTFARRSNVLTGLQDSSTDNRAKLDLGAQGKGQGHQYELNSKKHHQYQPHSKERAGKPPPPGKSGKYYYQLNSKKHHPYQPDPKMYDLQYQGGHKEAPSPTCPDLGAKSHPPDKWAQGAGAKGYLGAVKPLAGAAGAPGKGSEKGPPNGMMPAPKEAVTGNGIGGKMKIVKNKNKNGRIVIVMSKYMENGMQAVKIKSGEVAEGEARSPSHKKRAADERHPPADRTFKKAAGAEEKKVEAPPKRREEEVSGVSDPQPQDAGSRKLSPTKEAFGEQPLQLTTKPDLLAWDPARNTHPPSHHPHPHPHHHHHHHHHHHHAVGLNLSHVRKRCLSETHGEREPCKKRLTARSISTPTCLGGSPAAERPADLPPAAALPQPEVILLDSDLDEPIDLRCVKTRSEAGEPPSSLQVKPETPASAAVAVAAAAAPTTTAEKPPAEAQDEPAESLSEFKPFFGNIIITDVTANCLTVTFKEYVTV
For B1, the binding result in assay [1] was “no binding”; in assay [2], “no binding”; in assay [3] it was “no binding”; in assay [4], “no binding”; in assay [5], “no binding”; in assay [6], “binds”. Besides, the binding result in assay [7] was “binds”.

(Values after publication PMC7518283.)
